Laboratory results: publication PMC6758689
Results are given in words; binding and its absence hold for the method and conditions named. Binding seen in cells or lysates may run through a third protein.

Chains of the proteins cited; added tags and fusions are not shown.
UniProt O14818: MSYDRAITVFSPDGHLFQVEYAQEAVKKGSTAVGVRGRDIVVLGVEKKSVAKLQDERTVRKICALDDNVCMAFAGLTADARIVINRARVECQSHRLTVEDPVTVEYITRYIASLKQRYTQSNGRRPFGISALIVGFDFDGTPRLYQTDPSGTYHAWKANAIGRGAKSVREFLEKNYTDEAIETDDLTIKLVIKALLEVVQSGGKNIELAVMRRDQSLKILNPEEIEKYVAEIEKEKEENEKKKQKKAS
UniProt Q92922: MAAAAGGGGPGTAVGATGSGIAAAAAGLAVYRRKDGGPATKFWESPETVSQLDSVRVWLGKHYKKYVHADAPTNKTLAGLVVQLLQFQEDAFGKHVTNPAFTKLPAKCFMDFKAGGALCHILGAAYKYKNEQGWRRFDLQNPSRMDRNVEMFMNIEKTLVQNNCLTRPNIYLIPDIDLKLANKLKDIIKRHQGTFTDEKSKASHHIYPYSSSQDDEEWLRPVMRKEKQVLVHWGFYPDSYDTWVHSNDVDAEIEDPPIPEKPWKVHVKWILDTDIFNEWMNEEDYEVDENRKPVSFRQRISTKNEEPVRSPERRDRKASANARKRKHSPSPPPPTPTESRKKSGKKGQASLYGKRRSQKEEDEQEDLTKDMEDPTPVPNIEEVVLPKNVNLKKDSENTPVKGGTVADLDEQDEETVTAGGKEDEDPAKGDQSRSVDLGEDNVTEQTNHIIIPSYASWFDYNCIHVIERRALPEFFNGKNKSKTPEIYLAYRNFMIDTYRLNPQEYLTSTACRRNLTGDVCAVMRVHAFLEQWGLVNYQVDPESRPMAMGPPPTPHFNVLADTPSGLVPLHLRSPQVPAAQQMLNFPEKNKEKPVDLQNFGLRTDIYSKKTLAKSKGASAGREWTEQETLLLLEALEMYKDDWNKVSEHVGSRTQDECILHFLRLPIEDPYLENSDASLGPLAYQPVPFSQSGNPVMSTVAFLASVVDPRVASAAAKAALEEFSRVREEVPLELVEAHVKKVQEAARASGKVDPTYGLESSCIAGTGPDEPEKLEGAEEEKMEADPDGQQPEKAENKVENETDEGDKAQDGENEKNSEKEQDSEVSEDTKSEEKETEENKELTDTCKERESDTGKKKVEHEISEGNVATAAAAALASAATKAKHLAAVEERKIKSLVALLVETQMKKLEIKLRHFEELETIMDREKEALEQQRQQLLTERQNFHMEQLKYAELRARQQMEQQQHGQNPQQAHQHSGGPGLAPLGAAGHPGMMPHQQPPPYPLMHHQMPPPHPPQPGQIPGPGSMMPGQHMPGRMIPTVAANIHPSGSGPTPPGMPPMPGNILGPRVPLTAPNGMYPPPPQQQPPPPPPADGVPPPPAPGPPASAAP

Legend:
[1] = molecular target: proteasomal subunit PSMA7 (human (endogenous in Huh7)) (UniProt O14818); assay: co-IP; precipitated with anti-BAF155 and blotted for PSMA7, and vice versa (Figure 5B)
[2] = molecular target: endogenous BAF155 (human (endogenous in Huh7)) (UniProt Q92922); assay: as above

binding [1] | binding [2] | Substance
no binding | – | endogenous BAF155 (from UniProt Q92922 1-1105)
– | no binding | proteasomal subunit PSMA7 (from UniProt O14818 1-248)
